One substance from article PMC7293217, “TECPR1 promotes aggrephagy by direct recruitment of LC3C autophagosomes to lysosomes” (Nature Communications, 2020) can be followed below.

Protein sequences, listed by entry. Tags and fused reporters are not part of them. Residues count along the entry.
UniProt Q9BXW4, residues 1-126: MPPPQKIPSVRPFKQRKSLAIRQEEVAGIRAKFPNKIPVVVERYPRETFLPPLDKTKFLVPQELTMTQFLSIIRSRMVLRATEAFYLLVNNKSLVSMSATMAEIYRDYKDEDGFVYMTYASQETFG

Test [1] deals with T1, GFP-TECPR1 (human) (UniProt Q7Z6L1).
T1 sequence: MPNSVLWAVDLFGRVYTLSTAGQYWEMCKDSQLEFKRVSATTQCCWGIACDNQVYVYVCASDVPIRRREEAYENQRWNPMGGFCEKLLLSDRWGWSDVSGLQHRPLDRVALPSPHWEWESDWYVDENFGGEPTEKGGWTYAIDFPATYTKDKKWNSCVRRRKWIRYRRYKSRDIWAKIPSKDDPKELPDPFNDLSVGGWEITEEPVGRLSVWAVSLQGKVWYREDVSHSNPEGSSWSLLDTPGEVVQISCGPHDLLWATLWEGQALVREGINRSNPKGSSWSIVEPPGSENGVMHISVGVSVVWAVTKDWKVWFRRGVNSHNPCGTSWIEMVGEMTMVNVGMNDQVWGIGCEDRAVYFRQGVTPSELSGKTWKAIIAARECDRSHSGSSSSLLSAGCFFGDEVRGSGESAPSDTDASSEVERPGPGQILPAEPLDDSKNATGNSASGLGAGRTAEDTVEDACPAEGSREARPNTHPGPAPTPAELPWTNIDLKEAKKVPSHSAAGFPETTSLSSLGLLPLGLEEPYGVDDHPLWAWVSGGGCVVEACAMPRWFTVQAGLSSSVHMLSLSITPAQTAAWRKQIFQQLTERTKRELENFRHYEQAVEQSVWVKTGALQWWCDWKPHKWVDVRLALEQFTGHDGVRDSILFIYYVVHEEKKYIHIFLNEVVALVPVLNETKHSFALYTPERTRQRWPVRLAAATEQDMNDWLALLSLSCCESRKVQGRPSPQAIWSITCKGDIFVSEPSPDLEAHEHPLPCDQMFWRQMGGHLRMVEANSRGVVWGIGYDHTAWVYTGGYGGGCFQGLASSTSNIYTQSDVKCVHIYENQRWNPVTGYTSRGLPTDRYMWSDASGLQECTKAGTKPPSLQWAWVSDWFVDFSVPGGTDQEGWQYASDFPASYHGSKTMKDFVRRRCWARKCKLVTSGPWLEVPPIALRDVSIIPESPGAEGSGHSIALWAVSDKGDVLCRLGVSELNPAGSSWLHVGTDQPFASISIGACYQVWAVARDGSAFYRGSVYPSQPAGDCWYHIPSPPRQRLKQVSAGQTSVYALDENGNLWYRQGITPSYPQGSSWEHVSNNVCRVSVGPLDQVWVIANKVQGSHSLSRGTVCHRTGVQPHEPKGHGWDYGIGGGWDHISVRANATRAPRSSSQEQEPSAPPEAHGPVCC
Kind of test: co-IP; HeLa cells expressing GFP-TECPR1 or GFP transfected with HA-tagged hATG8s; lysate on GFP Trap magnetic beads overnight at 4 °C; wash 10 mM Tris-HCl pH 7.5, 150 mM NaCl, 0.5 mM EDTA; immunoblot. (Immunoblotting shows a protein as a band on a membrane.)

For test [2], the target named is T2, TECPR1^W175A/I178A (co-immunoprecipitation) (human) (UniProt Q7Z6L1).
T2 sequence: T1 sequence with W175A, I178A
The description is as above.

Positions count from the first letter of the chain named. Results are given in words; binding and its absence hold for the method and conditions named. Binding seen in cells or lysates may run through a third protein. Some results given as binding are weak or reduced against the parent protein; the word gives no strength. For some assays here: Tags and fused reporters may be left off the sequences shown.

For the substance HA-LC3C (from UniProt Q9BXW4 1-126), the binding result in test [1] and in test [2] was “binds” in each case.
